Source: PubChem BioAssay AID2073 (Sanford-Burnham Center for Chemical Genomics, 2009)
Screen size: about 290,000 compounds; about 570 (0.2%) were called active. The shares of active, inactive and inconclusive entries below differ from those in the screen. Rule as the data show it: active = inhibition mostly above about 51% (no sharp cut-off); inconclusive = no clear call, values can overlap the other calls; inactive = mostly below about 53%.

Chains of the proteins cited; added tags and fusions are not shown.
UniProt Q00975, whole entry, looked up: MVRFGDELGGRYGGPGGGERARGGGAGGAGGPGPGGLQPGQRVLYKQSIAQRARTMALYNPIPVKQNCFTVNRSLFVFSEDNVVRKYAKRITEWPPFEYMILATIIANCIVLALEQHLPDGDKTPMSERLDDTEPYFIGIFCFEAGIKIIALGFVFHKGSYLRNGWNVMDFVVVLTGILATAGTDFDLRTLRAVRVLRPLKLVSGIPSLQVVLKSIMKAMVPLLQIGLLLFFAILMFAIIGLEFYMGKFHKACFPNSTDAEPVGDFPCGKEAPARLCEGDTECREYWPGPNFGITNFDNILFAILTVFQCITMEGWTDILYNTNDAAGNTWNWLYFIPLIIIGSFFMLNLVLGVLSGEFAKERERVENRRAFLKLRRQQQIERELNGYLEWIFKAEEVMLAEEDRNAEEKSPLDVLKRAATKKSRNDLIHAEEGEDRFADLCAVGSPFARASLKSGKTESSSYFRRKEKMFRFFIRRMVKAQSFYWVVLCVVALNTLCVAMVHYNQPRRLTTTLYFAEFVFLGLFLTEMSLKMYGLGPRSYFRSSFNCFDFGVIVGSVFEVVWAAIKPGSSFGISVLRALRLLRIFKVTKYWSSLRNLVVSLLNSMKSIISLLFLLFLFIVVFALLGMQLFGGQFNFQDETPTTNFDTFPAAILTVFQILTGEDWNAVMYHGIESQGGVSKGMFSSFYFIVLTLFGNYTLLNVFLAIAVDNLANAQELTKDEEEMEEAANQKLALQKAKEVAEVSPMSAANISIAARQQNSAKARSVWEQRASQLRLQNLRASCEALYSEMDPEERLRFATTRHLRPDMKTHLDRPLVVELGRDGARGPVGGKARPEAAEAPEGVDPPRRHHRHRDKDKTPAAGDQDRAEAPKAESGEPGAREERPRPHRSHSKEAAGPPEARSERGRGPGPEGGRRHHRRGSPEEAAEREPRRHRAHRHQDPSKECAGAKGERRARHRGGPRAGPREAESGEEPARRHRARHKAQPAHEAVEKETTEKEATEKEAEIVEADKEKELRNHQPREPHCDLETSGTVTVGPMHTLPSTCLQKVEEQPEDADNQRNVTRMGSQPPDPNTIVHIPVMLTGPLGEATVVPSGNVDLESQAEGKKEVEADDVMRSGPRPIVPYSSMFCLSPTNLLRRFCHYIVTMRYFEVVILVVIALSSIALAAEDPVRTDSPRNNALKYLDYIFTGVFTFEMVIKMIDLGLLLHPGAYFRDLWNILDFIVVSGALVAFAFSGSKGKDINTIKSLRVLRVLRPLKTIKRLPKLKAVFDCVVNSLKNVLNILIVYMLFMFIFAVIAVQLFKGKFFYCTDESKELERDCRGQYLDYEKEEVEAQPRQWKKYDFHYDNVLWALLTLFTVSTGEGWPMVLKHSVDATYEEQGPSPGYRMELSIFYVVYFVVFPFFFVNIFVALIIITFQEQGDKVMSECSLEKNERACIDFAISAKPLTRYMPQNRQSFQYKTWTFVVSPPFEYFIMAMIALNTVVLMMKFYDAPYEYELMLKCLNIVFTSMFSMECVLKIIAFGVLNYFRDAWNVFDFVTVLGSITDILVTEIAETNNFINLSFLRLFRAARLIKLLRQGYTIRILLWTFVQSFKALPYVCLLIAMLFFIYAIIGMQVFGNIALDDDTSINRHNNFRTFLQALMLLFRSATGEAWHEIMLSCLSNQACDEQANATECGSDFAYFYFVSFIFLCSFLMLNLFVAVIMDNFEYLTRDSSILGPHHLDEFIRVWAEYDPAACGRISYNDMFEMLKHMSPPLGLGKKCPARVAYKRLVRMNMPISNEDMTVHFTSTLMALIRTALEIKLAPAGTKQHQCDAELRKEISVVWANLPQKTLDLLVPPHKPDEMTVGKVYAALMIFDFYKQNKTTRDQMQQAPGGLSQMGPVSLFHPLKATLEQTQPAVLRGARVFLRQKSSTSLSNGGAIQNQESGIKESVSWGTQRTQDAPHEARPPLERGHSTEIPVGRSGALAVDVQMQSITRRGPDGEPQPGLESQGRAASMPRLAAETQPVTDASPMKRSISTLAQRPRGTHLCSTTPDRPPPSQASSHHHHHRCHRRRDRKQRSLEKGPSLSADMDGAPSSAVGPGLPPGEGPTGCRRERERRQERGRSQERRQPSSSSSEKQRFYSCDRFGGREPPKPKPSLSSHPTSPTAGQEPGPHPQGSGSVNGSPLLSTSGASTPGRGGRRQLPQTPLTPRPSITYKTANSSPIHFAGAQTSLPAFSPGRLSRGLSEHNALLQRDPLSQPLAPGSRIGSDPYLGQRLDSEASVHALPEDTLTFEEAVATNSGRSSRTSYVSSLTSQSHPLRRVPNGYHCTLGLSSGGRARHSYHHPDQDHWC

Target: Voltage-dependent N-type calcium channel subunit alpha-1B (Homo sapiens) (UniProt Q00975)
Assay: disruptors of CaV2.2 binding to Mint1 – biochemical, HTRF (AID 2073)
Conditions: HTRF protein-protein interaction, Mint1-CaV2.2; at 20 µM; active compounds read high

Compound	inhibition
CCOc1ccccc1/C=N/NC(=O)CNC(=O)c1cccs1	inconclusive: 63.9%
COc1cc(/C=C\C(=O)NCc2ccc3[nH]c(C)cc3c2)cc(OC)c1OC	inconclusive: 81.3%
CC(=O)c1cccc(Nc2nc3ccccc3n3cnnc23)c1	inconclusive: 55.9%
CCOC(=O)CSc1nc(C)c(Oc2ccc(Cl)cc2Cl)c(=O)[nH]1	inconclusive: 68.1%
CN(C(=O)c1cc2c(=O)n3ccccc3nc2n1C)C1CCCCC1	inconclusive: 52.7%
O=C(CSc1ccc2nnc(-c3cccnc3)n2n1)Nc1ccc(F)cc1F	inconclusive: 58.2%
CCN(CC)CCCN1C(=O)C(=O)/C(=C(/O)c2cc(C)ccc2C)C1c1cccnc1 (stereo not given)	inconclusive: 89.3%
C[N+]1(C)CC2=Cc3ccccc3CC2C1 (stereo not given)	inconclusive: 54.9%
CC1=C(C(=O)O)N2C(=O)C(NC(=O)c3ccn(C)n3)C2SC1 (stereo not given)	inactive: -8.1%
CC(=O)Nc1ccc(OC(=O)CC2SC(=O)NC2=O)cc1 (stereo not given)	inconclusive: 55.6%
NC(=O)CC(NC(=O)Cc1ccc(Br)cc1)c1ccc(NCc2ccc(F)c(F)c2)c([N+](=O)[O-])c1 (stereo not given)	inconclusive: 50.2%
CCOC(=O)/C(C#N)=C/Nc1cc(C(=O)OCC)cc2c(OC)c(OC)ccc12	inconclusive: 67.2%
O=C(N/N=C/c1ccccc1)c1ccc(CN2C(=O)c3cccc4cccc2c34)cc1	inactive: 36.4%
COc1ccc(C(=O)CSc2nnc3ccc(-c4ccccn4)nn23)cc1	inconclusive: 53.7%
N#Cc1cnc(NOCc2ccc(Cl)cc2)nc1	inactive: 9.4%
O=C(O)CC/C(=C\c1ccc(Cl)c([N+](=O)[O-])c1)c1nc2ccccc2s1	inactive: 6.1%
COc1ccc(NC(=O)N2CCc3ccccc3C2)c(OC)c1	inconclusive: 63.2%
COCCN1Cc2cccc(C(=O)Nc3cccc(-c4nc5ccccc5[nH]4)c3)c2C1=O	inconclusive: 53.8%
COc1ccc(C2CC(=O)N3CN(Cc4ccco4)CSC3=C2C#N)cc1 (stereo not given)	inactive: 76.3%
Cc1cccc(NC(=O)CN2CCC(C(=O)c3ccc4c(c3)OCCO4)CC2)c1	inconclusive: 58.4%
Nc1nc(N)c(N=Nc2ccc(S(N)(=O)=O)cc2)c(=O)[nH]1	inactive: 13.6%
COc1ccc(Cl)cc1S(=O)(=O)N1CCC(C(=O)N2CCOCC2)CC1	inconclusive: 81%
COC(=O)c1ccccc1NC(=O)Oc1ccc(C(C)C)cc1	inconclusive: 61.6%
CC(C)c1csc(CN2CCN(Cc3ccccc3)C(CCO)C2)n1 (stereo not given)	inactive: 11.5%
CCCCCCCNC(=O)CC(NS(=O)(=O)c1ccc(NC(C)=O)cc1)C(C)C (stereo not given)	inactive: 1.5%
O=C1NN(c2ccccc2)C(=O)/C1=C\c1ccc(-c2cc([N+](=O)[O-])ccc2O)o1	inactive: 31.4%
CCCCCCC(=O)N(O)C1CC(=O)N(c2ccc(C)cc2)C1=O (stereo not given)	inactive: 12.5%
COC(=O)[C@@H]1C[C@@H]2CC[C@@H](O)C[C@@H]2N1Cc1ccccc1OS(=O)(=O)c1ccc(C)cc1	inconclusive: 86.4%

Compound	inhibition
O=C(COC(=O)C1CC(=O)N(Cc2ccccc2)C1)c1ccc(F)cc1 (stereo not given)	inconclusive: 56.7%
CC(C)(C)c1nnc(NC(=O)c2ccc3c(c2)OCO3)s1	inconclusive: 54.6%
CC(C)c1cccc(C(C)C)c1NC(=S)Nc1cccc(Cl)c1	inconclusive: 69%
COc1ccc(-n2c(C)c(C(=O)O)c3cc(OC)c4ccccc4c32)cc1	inactive: 13.1%
O=C1CN(c2nc(-c3ccccc3)c3cc(Br)ccc3n2)c2ccccc2N1	inconclusive: 53.2%
C[C@H]1[C@H](C)CC[C@]2(C)CC[C@]3(C)C(=CC[C@@H]4[C@@]5(C)CC[C@@H](O)[C@](C)(C(=O)O)[C@@H]5CC[C@]43C)[C@H]12	active: 77%
CC(=O)Nc1ccccc1C(=O)C(=O)O	inconclusive: 82.7%
O=C(Nc1cnc2ccccn2c1=O)c1ccc(F)cc1	inconclusive: 90%
O=C(CSc1nnc(-c2ccccc2)o1)NC1CCS(=O)(=O)C1 (stereo not given)	inactive: -2.1%
CCOC(=O)N1CCN(C(=O)CSCc2ccccc2C)CC1	inactive: -5.4%
COc1ccc(NC(=O)CCCC(=O)OCC(=O)c2cccc(OC)c2)cc1	inconclusive: 71.8%
Cc1cc2cc(CNC(=O)Nc3ccccc3)ccc2[nH]1	inconclusive: 68.5%
O=C(OC1CCCCC1)c1ccc2c(c1)C1C=CCC1C(C(=O)O)N2 (stereo not given)	active: 74.8%
CNC(=O)Nc1ccccc1C(=O)Nc1ccccc1	inconclusive: 91.2%
COc1cc(NC(=O)c2ccccc2)c(OC)cc1NC(=O)Cc1cccs1	active: 51.4%
Cc1ccccc1S(=O)Cc1ccc(C(=O)N2CCN(C(=O)c3ccco3)CC2)o1 (stereo not given)	inconclusive: 54.1%
CC(C)C(C(=O)NCC1CCCO1)N(C(=O)CNS(=O)(=O)c1ccc(F)cc1)C1CCCCC1 (stereo not given)	inconclusive: 56.2%
COC(=O)c1ccc(CN(C(C)=O)c2ccccc2)o1	inconclusive: 56.2%
O=c1c2ccccc2oc2nc3ccn(Cc4ccncc4)c(=O)c3cc12	inconclusive: 50%
CCOC(=O)N1CCC(NC(=O)c2cc(S(=O)(=O)N(CC)CC)ccc2F)CC1	inconclusive: 51.5%
COc1ccc(N2CCN(CC(O)COc3ccc(C)cc3C)CC2)cc1 (stereo not given)	inconclusive: 52.6%
CCCCn1c(=O)[nH]c(=O)c2c1nc(-c1ccc(-c3ccc(F)cc3)o1)n2C	inconclusive: 51.2%
O=C(COC(=O)c1cccs1)Nc1ccc(S(=O)(=O)N2CCOCC2)cc1	inconclusive: 54.8%
COCCNc1oc(/C=C/c2ccccc2)nc1C#N	inconclusive: 57.2%
O=C(COC(=O)c1ccc([N+](=O)[O-])o1)Nc1cccc(S(=O)(=O)N2CCCCC2)c1	inconclusive: 83.5%
O=C(Nc1nnc(C2CC2)s1)C1CC(=O)N(c2ccc3c(c2)OCCO3)C1 (stereo not given)	inactive: 12.6%
COc1ccc(NS(=O)(=O)c2cccc(-c3n[nH]c(=S)n3Cc3ccccc3)c2)cc1	inactive: 3.7%
